From patent US11717508B2, “Compounds, compositions, and methods for inhibiting bacterial growth” (priority 2016, dated 2023)
Values joined by “and” are separate entries in the source; they are usually repeats but may differ in a detail not shown here. Equal entries are not always repeated. Where two headings read alike, the source gives them in different places. The source gives many values for each of these; only a part stands here.

Tested on: DosRST regulon
Assay type: cell-based
Conditions: for Counts per million (CPM) WT_HC103A: replicates 1, 2

**Q.** Which results are given for `O=C(Nc1cccc(O)c1)c1cccc(NC(=O)c2cccs2)c1` [HC103A, N-[3-[(3 hydroxyphenyl)carbamoyl]phenyl]thiophene-2-carboxamide]?
**A.** Counts per million (CPM) WT_HC103A (gene MT36S5 Rv3551): 77.96 CPM and 70.72 CPM; Counts per million (CPM) WT_HC103A (gene MT0086 Rv0079): 612.5 CPM and 321 CPM; Counts per million (CPM) WT_HC103A (gene MT0087 Rv0080): 224.7 CPM and 124.7 CPM; WT DMSO/WT HC103A Fold change (gene MT0169 Rv0160c PE): 2.654; log2 Fold change (gene MT0169 Rv0160c PE): 1.408; Counts per million (CPM) WT_HC103A (gene MT0169 Rv0160c PE): 19.65 CPM and 19.55 CPM; WT DMSO/WT HC103A Fold change (gene MT0206 Rv0196): 4.813; log2 Fold change (gene MT0206 Rv0196): 2.267; Counts per million (CPM) WT_HC103A (gene MT0206 Rv0196): 145.2 CPM and 138.3 CPM; Counts per million (CPM) WT_HC103A (gene MT0207 Rv0197): 324.2 CPM and 345.5 CPM; Counts per million (CPM) WT_HC103A (gene MT0337 Rv0322 udgA): 71.01 CPM and 46.23 CPM; Counts per million (CPM) WT_HC103A (gene MT0468 Rv0452): 128.9 CPM and 95.91 CPM; Counts per million (CPM) WT_HC103A (gene MT0491 Rv0474): 167.6 CPM and 130.6 CPM; Counts per million (CPM) WT_HC103A (gene MT0585 Rv0559c): 2,729.98 CPM and 4,689.54 CPM; Counts per million (CPM) WT_HC103A (gene MT0586 Rv0560c): 6,038.01 CPM and 10,500.79 CPM; Counts per million (CPM) WT_HC103A (gene MT0595 Rv0569): 28.43 CPM and 30.13 CPM; Counts per million (CPM) WT_HC103A (gene MT0808 Rv0784): 168.9 CPM and 139.9 CPM; Counts per million (CPM) WT_HC103A (gene MT0910 Rv0887c): 40.68 CPM and 23.64 CPM; Counts per million (CPM) WT_HC103A (gene MT1294 Rv1255c): 27.37 CPM and 11.95 CPM; Counts per million (CPM) WT_HC103A (gene MT1608 Rv1557 mmpL6): 306.8 CPM and 411.4 CPM; WT DMSO/WT HC103A Fold change (gene MT1924 Rv1875): 2.702; log2 Fold change (gene MT1924 Rv1875): 1.434; Counts per million (CPM) WT_HC103A (gene MT1924 Rv1875): 140 CPM and 72.47 CPM; Counts per million (CPM) WT_HC103A (gene MT2090): 1,309.90 CPM and 213.7 CPM; Counts per million (CPM) WT_HC103A (gene MT2091 Rv2032): 93.24 CPM and 24.61 CPM; Counts per million (CPM) WT_HC103A (gene MT2445.1): 33.55 CPM and 43.9 CPM; WT DMSO/WT HC103A Fold change (gene MT2526 Rv2450c): 2.86; log2 Fold change (gene MT2526 Rv2450c): 1.516; Counts per million (CPM) WT_HC103A (gene MT2526 Rv2450c): 565.3 CPM and 307.7 CPM; Counts per million (CPM) WT_HC103A (gene MT2556 Rv2483c): 246.1 CPM and 208 CPM; Counts per million (CPM) WT_HC103A (gene MT2557 Rv2484c): 325.2 CPM and 280.1 CPM; Counts per million (CPM) WT_HC103A (gene MT2574 Rv2499c): 131.7 CPM and 99.22 CPM; Counts per million (CPM) WT_HC103A (gene MT2576): 381.7 CPM and 270.3 CPM; Counts per million (CPM) WT_HC103A (gene MT2577 Rv2502c accD1): 138.3 CPM and 104.8 CPM; Counts per million (CPM) WT_HC103A (gene MT2578 Rv2503c scoB): 136.9 CPM and 114.2 CPM; Counts per million (CPM) WT_HC103A (gene MT2579 Rv2504c scoA): 149.7 CPM and 111 CPM; Counts per million (CPM) WT_HC103A (gene MT2698 Rv2623): 323.6 CPM and 153.3 CPM; Counts per million (CPM) WT_HC103A (gene MT2699 Rv2624c): 46.28 CPM and 12.99 CPM; Counts per million (CPM) WT_HC103A (gene MT2700 Rv2625c): 65.11 CPM and 13.96 CPM; Counts per million (CPM) WT_HC103A (gene MT2701 Rv2626c): 174.8 CPM and 34.87 CPM; Counts per million (CPM) WT_HC103A (gene MT2702 Rv2627c): 50.97 CPM and 24.87 CPM; Counts per million (CPM) WT_HC103A (gene MT2703 Rv2678): 26.47 CPM and 22.34 CPM; Counts per million (CPM) WT_HC103A (gene MT2704 Rv2629): 413.2 CPM and 339.4 CPM; Counts per million (CPM) WT_HC103A (gene MT2705 Rv2630): 59.82 CPM and 43.05 CPM; Counts per million (CPM) WT_HC103A (gene MT2707 Rv2631): 74.71 CPM and 51.82 CPM; WT DMSO/WT HC103A Fold change (gene MT2792 Rv2719c): 2.674; log2 Fold change (gene MT2792 Rv2719c): 1.419; Counts per million (CPM) WT_HC103A (gene MT2792 Rv2719c): 54.37 CPM and 41.56 CPM; WT DMSO/WT HC103A Fold change (gene MT2805 Rv2736c recX): 2.589; log2 Fold change (gene MT2805 Rv2736c recX): 1.372; Counts per million (CPM) WT_HC103A (gene MT2805 Rv2736c recX): 90.29 CPM and 59.16 CPM; WT DMSO/WT HC103A Fold change (gene MT3110 Rv3026c): 3.906; log2 Fold change (gene MT3110 Rv3026c): 1.966; Counts per million (CPM) WT_HC103A (gene MT3110 Rv3026c): 19.13 CPM and 14.81 CPM; WT DMSO/WT HC103A Fold change (gene MT3140 Rv3054c): 11.16; log2 Fold change (gene MT3140 Rv3054c): 3.481; Counts per million (CPM) WT_HC103A (gene MT3140 Rv3054c): 40.68 CPM and 10.91 CPM; Counts per million (CPM) WT_HC103A (gene MT3171 Rv3086 adhD): 246.8 CPM and 214.6 CPM; Counts per million (CPM) WT_HC103A (gene MT3210): 0.2269 CPM and 0 CPM; Counts per million (CPM) WT_HC103A (gene MT3212 Rv3127): 251.3 CPM and 90.33 CPM; Counts per million (CPM) WT_HC103A (gene MT3216 Rv3130c): 290.8 CPM and 74.09 CPM; Counts per million (CPM) WT_HC103A (gene MT3217 Rv3131): 118.8 CPM and 25.13 CPM; Counts per million (CPM) WT_HC103A (gene MT3218 Rv3132c): 237.9 CPM and 168.7 CPM; Counts per million (CPM) WT_HC103A (gene MT3219 Rv3133c): 112.5 CPM and 67.01 CPM; Counts per million (CPM) WT_HC103A (gene MT3220 Rv3134c): 155.2 CPM and 61.75 CPM; WT DMSO/WT HC103A Fold change (gene MT3345 Rv3247c tmk): 2.667; log2 Fold change (gene MT3345 Rv3247c tmk): 1.415; Counts per million (CPM) WT_HC103A (gene MT3345 Rv3247c tmk): 32.74 CPM and 20.58 CPM; Counts per million (CPM) WT_HC103A (gene MT3427): 112.4 CPM and 107.5 CPM; Counts per million (CPM) WT_HC103A (gene MT3443 Rv3340 metC): 593.2 CPM and 359.1 CPM; Counts per million (CPM) WT_HC103A (gene MT3444 Rv3341 metA): 307.4 CPM and 175.5 CPM; WT DMSO/WT HC103A Fold change (gene MT3513): 2.672; log2 Fold change (gene MT3513): 1.418; Counts per million (CPM) WT_HC103A (gene MT3513): 104.9 CPM and 49.09 CPM; WT DMSO/WT HC103A Fold change (gene MT3514 Rv3406): 8.433; log2 Fold change (gene MT3514 Rv3406): 3.076; Counts per million (CPM) WT_HC103A (gene MT3514 Rv3406): 685 CPM and 289.7 CPM; WT DMSO/WT HC103A Fold change (gene MT3515 Rv3407): 3.439; log2 Fold change (gene MT3515 Rv3407): 1.782; Counts per million (CPM) WT_HC103A (gene MT3515 Rv3407): 276.8 CPM and 112.9 CPM; Counts per million (CPM) WT_HC103A (gene MT3608 Rv3504 fadE26): 48.09 CPM and 42.08 CPM; Counts per million (CPM) WT_HC103A (gene MT3634 Rv3531c): 55.28 CPM and 43.57 CPM; Counts per million (CPM) WT_HC103A (gene MT3656 Rv3552): 108.5 CPM and 106.4 CPM; Counts per million (CPM) WT_HC103A (gene MT3716 Rv3614c): 1,189.74 CPM and 540 CPM; Counts per million (CPM) WT_HC103A (gene MT3717 Rv3615c): 538.7 CPM and 261 CPM; Counts per million (CPM) WT_HC103A (gene MT3718 Rv3616c): 1,818.45 CPM and 821.5 CPM; WT DMSO/WT HC103A Fold change (gene MT3723 Rv3621c PPE): 3.542; log2 Fold change (gene MT3723 Rv3621c PPE): 1.824; Counts per million (CPM) WT_HC103A (gene MT3723 Rv3621c PPE): 40.46 CPM and 11.43 CPM; WT DMSO/WT HC103A Fold change (gene MT3724 Rv3622c PE): 4.154; log2 Fold change (gene MT3724 Rv3622c PE): 2.054; Counts per million (CPM) WT_HC103A (gene MT3724 Rv3622c PE): 20.27 CPM and 6.364 CPM; WT DMSO/WT HC103A Fold change (gene MT3846): 2.912; log2 Fold change (gene MT3846): 1.542; Counts per million (CPM) WT_HC103A (gene MT3846): 53.39 CPM and 59.48 CPM
